Experimental data: patent US7250488
These are yes or no findings as the source states them, for the method shown. Sequences can lack the tags named with a protein.

What was measured:
Experiment in all cases: GST/ICAT pull-down of ^35S-labeled in vitro translated protein, autoradiography
Axin, ^35S-labeled = target: Axin, ^35S-labeled
[1] = target: GSK-3β (glycogen synthase kinase-3β), ^35S-labeled
[2] = target: TCF-4 (T cell factor 4), ^35S-labeled
DVL-1, ^35S-labeled = target: DVL-1, ^35S-labeled

binding (Axin, ^35S-labeled): no binding
binding [1]: no binding
binding [2]: no binding
binding (DVL-1, ^35S-labeled): no binding
B1: GST/ICAT (fusion protein between GST and ICAT) (protein, not shown: a dimerising Fc or GST)
chain: MNREGAPGKSPEEMYIQQKVRVLLMLRKMGSNLTASEEEFLRTYAGVVSSQLSQLPQHSIDQGAEDVVMAFSRSETEDRRQ
